According to the supplement of paper PMC10338343:
± gives the standard deviation. The entries are a selection whose mix differs from that of the whole data set. Many of these values have a large error.

Key:
[1] = tested on: MILI (PIWIL2) piRISC loaded with piRNA #1 (26 nt); assay: pre-steady-state target cleavage rate (min^-1); higher = faster piRNA-guided slicing of the target; conditions: guide: piRNA #1 5'p-UGAGGUAGUAGGUUGUAUAGUAUCCA; auxiliary factor: 500 nM mouse GTSF1
Summary of the method: (§1)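 At 33 °C in HEPES–potassium acetate buffer, a transcribed, DNA-blocked target RNA library […] was exposed for 0–8 or 0–960 min to 1 nM active affinity-purified piRISC carrying a single synthetic guide, with or without 500 nM GTSF1 partner protein. Uncleaved targets were sequenced and normalised to depth and to weakly complementary targets. With three trials pooled and k3 capped at 0.0001 min^-1, a burst-and-steady-state fit produced the pre-steady-state cleavage rate.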

[2] = tested on: MIWI (PIWIL1) piRISC loaded with piRNA #1 (30 nt); assay: as above; conditions: guide: piRNA #1 5'p-UGAGGUAGUAGGUUGUAUAGUAUCCAGAGG; auxiliary factor: 500 nM mouse GTSF1
Summary of the method: as §1

[3] = tested on: EfPiwi piRISC loaded with piRNA #1 (26 nt); assay: pre-steady-state target cleavage rate (min^-1); guide: piRNA #1 5'p-UGAGGUAGUAGGUUGUAUAGUAUCCA; MIWI and MILI are mouse PIWI proteins and EfPiwi is from a freshwater sponge; tags in brackets are library labels; higher = faster piRNA-guided slicing of the target; conditions: auxiliary factor: 500 nM Ephydatia muelleri Gtsf1
Summary of the method: as §1

| Sequence | pre-steady-state target cleavage rate [1] | pre-steady-state target cleavage rate [2] | pre-steady-state target cleavage rate [3] |
| --- | --- | --- | --- |
| GGAGACCUAUGAUAACAACCUACAACCUGA | 0.00114 ± 0.0046 | 0.000123 ± 0.014 | 0.000735 ± 0.013 |
| GGAGACCUAUGAUUACAACCUACAAGCUCA | 0.00117 ± 0.0058 | 0.000137 ± 0.012 | 0.000254 ± 0.014 |
| GGAGACCUAUGUAUACAACCCUACUACCUCA | 0.00107 ± 0.0068 | 0.000194 ± 0.018 | 0.000702 ± 0.0094 |
